Hit rate of the full screen: of about 390,000 compounds, about 760 (0.19%) were called active. This list was built around the results that the source calls inconclusive (neither active nor inactive); the mix of calls is not that of the screen. Calls follow the shape of the dose curve; as a rule, active = well fitted inhibition curve with a large enough effect; inconclusive = small, poorly fitted or top-dose-only effect; inactive = flat fitted curve, though single readings scatter. A potency beside an inconclusive call is a rough fit, not a confirmed value.
assay: qHTS for Inhibitors of Vif-A3F Interactions: qHTS; details: HeLa A3F-eYFP + Vif (tagged APOBEC3F with the HIV-1 protein that degrades it), YFP fluorescence increase; series mostly up to 46.1 µM; activity, negative = active: at the top concentration; also: nearly all actives have a fitted effect of over 65% in size; as to activity, negative = active: % of control where 0% means no effect
Summary of the method: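 Fluorescence increase (Ex 488/Em 500-530) after overnight compound treatment at 37 deg C flags inhibition of Vif-driven A3F-eYFP loss in stable HeLa A3F-eYFP/Vif cells seeded overnight beforehand.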
Potency is read from the fitted curve at half-maximal effect.

SMILES	Potency	activity, negative = active
O=C(N/N=C/C(Br)=C/c1ccccc1)c1ccncc1	inconclusive: 5.62 µM [inhibitor, single point]	
COc1ccc2c(CC(=O)N3CCN(S(=O)(=O)c4ccc(F)cc4)CC3)coc2c1		inactive: -0.281%
O=C(c1cc(=O)c2ccccc2o1)N1CCN(c2ccccc2)CC1	inconclusive: 5.62 µM [inhibitor, single point]	
NC(=O)c1ccsc1NC(=O)CSc1nc2ccccc2c(=O)n1CCCO	inconclusive: 2.51 µM [inhibitor, full curve]	
N#C/C(=C\c1ccc(OC(=O)c2ccc(Br)s2)cc1)c1nc2ccccc2[nH]1	inconclusive: 14.1 µM [inhibitor, partial curve, poor fit]	
CCc1ccc(C2C(C#N)=C(N)SC(N)=C2C#N)cc1	inconclusive: 20 µM [inhibitor, partial curve, poor fit]	
Fc1ccc(-c2cnn3c(-c4cccs4)ccnc23)cc1	inconclusive: 20 µM [inhibitor, partial curve, poor fit]	
NS(=O)(=O)c1ccc(NC(=S)N2CCN(Cc3ccc(Cl)c(Cl)c3)CC2)cc1		inactive: -3.48%
COc1ccc(/C=C2\SC(=N)N(c3nccs3)C2=O)cc1OC	inconclusive: 5.01 µM [inhibitor, single point]	
Cc1ccc(CN(C)C(=O)C2CCCN2C(=O)c2cccs2)o1 (stereo not given)		inactive: -6.42%
CCOC(=O)c1ccc(NC(=O)COc2ccc(S(=O)(=O)N3CCCC3)cc2)cc1	inconclusive: 3.55 µM [inhibitor, single point]	
CCN1/C(=C/c2ccc3ccccc3[n+]2CCCS(=O)(=O)[O-])C=Cc2cc(C)ccc21		inactive: 7.01%
O=C(NCCCN1CCOCC1)c1ccc2c(c1)N(Cc1ccccc1)CCS2		inactive: -5.59%
O=S(=O)(O)c1cc(O)c(N=Nc2ccc(O)cc2O)c2ccccc12		inactive: 2.38%
COc1ccc(-c2oc3ccc(-c4ccc(OC)nc4)cc3c2-c2ccc(OC)cc2)cc1		inactive: 0.746%
CC(=O)NNC(=O)CN1C(=O)/C(=C/c2ccccc2)SC1=S		inactive: 3.12%
Cc1cc2oc(C(=O)Nc3ccc(S(=O)(=O)Nc4onc(C)c4C)cc3)cc(=O)c2cc1C		inactive: 3.84%
CCN1CCN(c2cc(N3CCN(C(=O)c4ccco4)CC3)c3c4c(onc24)-c2ccccc2C3=O)CC1	inconclusive: 11.2 µM [inhibitor, partial curve, poor fit]	
CCOC(=O)CCCCC(=O)c1[nH]c(=O)[nH]c1CSc1nc(C)cc(=O)[nH]1		inactive: -0.625%
CNc1ccccc(C(=O)/C=C/c2ccccc2OC)c1=O	inconclusive: 20 µM [inhibitor, partial curve, poor fit]	
NC1=NC[C@H](c2ccccc2)N1CCCCC1CCCCC1	inconclusive: 35.5 µM [inhibitor, single point]	
C/C=C\C=C\C(=O)N1CC2(CC(c3cccc(NC(=O)COc4ccc(Cl)cc4)c3)=NO2)C[C@H]1C(N)=O (stereo not given in full)		inactive: -0.0546%
O=C(O)C(Cc1ccccc1)N1C(=O)/C(=C/c2ccccc2)SC1=S (stereo not given)		inactive: -5.21%

Reformatted: eleven of the compounds above.

| SMILES | Potency | activity, negative = active |
| --- | --- | --- |
| COc1ccc(/C=C2\SC(=N)N(c3nccs3)C2=O)cc1OC | inconclusive: 5.01 µM [inhibitor, single point] |  |
| Cc1ccc(CN(C)C(=O)C2CCCN2C(=O)c2cccs2)o1 (stereo not given) |  | inactive: -6.42% |
| CCOC(=O)c1ccc(NC(=O)COc2ccc(S(=O)(=O)N3CCCC3)cc2)cc1 | inconclusive: 3.55 µM [inhibitor, single point] |  |
| CCN1/C(=C/c2ccc3ccccc3[n+]2CCCS(=O)(=O)[O-])C=Cc2cc(C)ccc21 |  | inactive: 7.01% |
| O=C(NCCCN1CCOCC1)c1ccc2c(c1)N(Cc1ccccc1)CCS2 |  | inactive: -5.59% |
| O=S(=O)(O)c1cc(O)c(N=Nc2ccc(O)cc2O)c2ccccc12 |  | inactive: 2.38% |
| COc1ccc(-c2oc3ccc(-c4ccc(OC)nc4)cc3c2-c2ccc(OC)cc2)cc1 |  | inactive: 0.746% |
| CC(=O)NNC(=O)CN1C(=O)/C(=C/c2ccccc2)SC1=S |  | inactive: 3.12% |
| Cc1cc2oc(C(=O)Nc3ccc(S(=O)(=O)Nc4onc(C)c4C)cc3)cc(=O)c2cc1C |  | inactive: 3.84% |
| CCN1CCN(c2cc(N3CCN(C(=O)c4ccco4)CC3)c3c4c(onc24)-c2ccccc2C3=O)CC1 | inconclusive: 11.2 µM [inhibitor, partial curve, poor fit] |  |
| CCOC(=O)CCCCC(=O)c1[nH]c(=O)[nH]c1CSc1nc(C)cc(=O)[nH]1 |  | inactive: -0.625% |

Further results follow:

SMILES	Potency	activity, negative = active
O=S(=O)(Nc1ncccn1)c1ccc(NC(=S)Nc2ccccc2)cc1	inconclusive: 3.55 µM [inhibitor, partial curve, poor fit]	
O=C(Cc1ccccc1)N/N=C/c1cc(Br)cc(Cl)c1O	inconclusive: 6.31 µM [inhibitor, single point]	
Cc1ccc2c(=O)c(C(=O)c3ccc(Cl)cc3)cn(CC(=O)Nc3ccc4c(c3)OCCO4)c2n1	inconclusive: 35.5 µM [inhibitor, single point]	
CCC(=O)N1CCN(c2ccc(Cl)cc2NC(=S)NC(=O)c2ccco2)CC1		inactive: 5.54%
Cc1ccc(Sc2cc(C)nc(-c3ccccn3)n2)cc1	inconclusive: 3.98 µM [inhibitor, full curve, poor fit]	
Cc1cc(Nc2ccccc2O)nc(C)n1	inconclusive: 22.4 µM [inhibitor, partial curve, poor fit]	
COC(=O)c1ccc(-c2ccc(C(c3c(C)[nH][nH]c3=O)c3c(C)[nH][nH]c3=O)o2)cc1		inactive: 8.67%
O=C(CSc1ccc2c(c1)OCCO2)Nc1ccc(Br)cn1	inconclusive: 22.4 µM [inhibitor, partial curve, poor fit]	
COc1ccc(CCNc2nc(-c3ccc(NC(C)=O)cc3)cs2)cc1OC		inactive: 6.68%
COc1ccc(-n2c(=O)/c(=C\c3cccs3)s/c2=C(/C#N)C(=O)NCCN2CCOCC2)cc1	inconclusive: 2.82 µM [inhibitor, full curve, poor fit]	
NC(=O)c1ccsc1NC(=O)c1ccc(S(=O)(=O)N2CCCCC2)cc1	inconclusive: 22.4 µM [inhibitor, single point]	
CCOc1cc(CNc2ccc(O)cc2)cc(Cl)c1OCc1ccccc1		inactive: 3.33%
COCCNc1nnc(SCC(=O)NC(=O)c2ccc(Cl)cc2)s1		inactive: 7.38%
N#C/C(=C/c1ccc(N2CCOCC2)o1)C(=O)NC1CCCCC1	active: 22.4 µM	
COc1ccc(-c2csc(NC(=S)NC(=O)/C=C/c3ccco3)n2)cc1Br	inconclusive: 10 µM [inhibitor, partial curve, poor fit]	
O=C(NC(=O)N1CCN(c2ccc([N+](=O)[O-])cn2)CC1)c1ccccc1F	inconclusive: 11.2 µM [inhibitor, partial curve]	
COCCNC(=O)CN1C(=O)CCn2nc(-c3cn(C)c4ccccc34)cc21		inactive: 4.67%
CN(C)c1ccc(C=c2c3ccccc3n3c2c2c([n+]3C)CCCC2)cc1		inactive: 11.1%
COc1ccc(C(=O)NC(=S)Nc2cccc(Cl)c2N2CCOCC2)cc1[N+](=O)[O-]	inconclusive: 5.62 µM [inhibitor, single point]	
CCc1cc[n+](-c2nc3ccccc3nc2[N-]S(=O)(=O)c2ccc(Br)s2)cc1	inconclusive: 2.24 µM [inhibitor, full curve, poor fit]	
Cc1ccc(NS(=O)(=O)c2ccc(OCC(=O)NCc3cccnc3)cc2)cc1	inconclusive: 3.16 µM [inhibitor, single point]	
COc1ccc(CC(C)Nc2cccc(SC)c2)cc1 (stereo not given)	inconclusive: 35.5 µM [inhibitor, single point]	

From PubChem BioAssay AID602313 (National Center for Advancing Translational Sciences (NCATS), 2012)
